The values below come from PMC7819943, “Rice protein-binding microarrays: a tool to detect cis-acting elements near promoter regions in rice”.

This is one part of the list.

For the assay, the target named is T1, OsSMF1 (Oryza sativa, UniProt Q6ZLB0 1-436).
T1 sequence: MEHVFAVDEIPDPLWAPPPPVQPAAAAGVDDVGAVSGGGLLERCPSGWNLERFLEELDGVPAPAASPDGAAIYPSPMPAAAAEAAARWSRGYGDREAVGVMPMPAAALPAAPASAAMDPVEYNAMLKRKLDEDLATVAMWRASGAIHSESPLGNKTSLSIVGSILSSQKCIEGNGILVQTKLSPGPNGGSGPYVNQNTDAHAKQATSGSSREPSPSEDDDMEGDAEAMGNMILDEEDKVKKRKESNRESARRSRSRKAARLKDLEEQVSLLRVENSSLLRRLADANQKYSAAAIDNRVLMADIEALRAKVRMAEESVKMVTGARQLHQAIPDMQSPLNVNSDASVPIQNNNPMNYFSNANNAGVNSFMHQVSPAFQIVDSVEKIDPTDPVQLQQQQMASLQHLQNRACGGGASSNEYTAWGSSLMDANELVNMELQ
In words: protein-binding microarray (RPBM); PBS, 2% BSA, 51.3 ng/ul salmon testes DNA, 50 uM zinc acetate, 200 nM TF, 25 C, 1 h; high values mean tight binding. To be noted: protein: recombinant; tags: N-terminal polyhistidine and DsRed monomer fusion (pET32a); chain copies: 2; label: CyDye5-dUTP incorporated in the synthesized complementary strand; 3' TTTTT single-stranded linker to array surface; dsDNA, one strand shown. The method in brief: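 A custom Agilent array was converted to double-stranded form by primer extension with Cy5-dUTP and blocked with 2% BSA. Protein at 200 nM in PBS with 2% BSA, salmon testes DNA and 50 µM zinc acetate was applied for 1 h at 25 °C, followed by washing. The proteins were polyhistidine–DsRed N-terminal fusions of transcription factors, expressed in E. coli BL21-CodonPlus and Ni–NTA-purified. The binding signal is per-feature fluorescence intensity (arbitrary units) from an Axon 4000B scanner.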
Turning to “CTTTATCTGCATGAATTAATGCATGATTACATCATTGCACCGGAGTCACCTAGTGCAG”, the binding signal is 35000 fluorescence intensity (a.u.).
Turning to “AATCTGGGAAGCCGTGTAGCGCGCGTCATCACGTCGTCCCCGGAGTCACCTAGTGCAG”, the binding signal was 7760 fluorescence intensity (a.u.).
Turning to “TATTTTCCTCCTGGACCCTTTCGCAAGTAACACGCGTCGGCGGAGTCACCTAGTGCAG”, the binding signal is 4670 fluorescence intensity (a.u.).
Take “TGCATGTGGAGGGAGAAGAGGGCGGCGGCACACGTGGAGGCGGAGTCACCTAGTGCAG”: the binding signal was 5880 fluorescence intensity (a.u.).
In the case of “GACGACCCCAGCGTCAGCCGCGTCATGCGGGAGGCCGGCTCGGAGTCACCTAGTGCAG” it was 6400 fluorescence intensity (a.u.); in that of “CGCGCGCGTACTGGCTACACACACATACGCGCGGCGACAGCGGAGTCACCTAGTGCAG”, 3820 fluorescence intensity (a.u.).
Consider “ATCACTCTACTTTGTCTGTGTCATATTATAAGCTGCTTGACGGAGTCACCTAGTGCAG”, for which the binding signal was 5640 fluorescence intensity (a.u.).
Under “CGCGCGGAATAGAGAATACTCCTACCGCAACTTGGCCCGGCGGAGTCACCTAGTGCAG” stands 3490 fluorescence intensity (a.u.).
In the case of “TGTGTTGGCGTGGGCCCCACCTGCCACGTCAGGTCCAGCTCGGAGTCACCTAGTGCAG”, the binding signal is 26700 fluorescence intensity (a.u.).
Under “TTGAACACGACCTCTTCCTTCTCCAAACGAACGACCATGCCGGAGTCACCTAGTGCAG” stands 18300 fluorescence intensity (a.u.); under “TCCCTTGGCAGTATAGGTGGGTGGTTTTGCTTACGTGGCACGGAGTCACCTAGTGCAG”, 40000 fluorescence intensity (a.u.).
With “GCTAGGTCTGGTCGCCCCGTGTGTGTATCCGTTGCCCCTGCGGAGTCACCTAGTGCAG”, the binding signal was 3860 fluorescence intensity (a.u.).
Consider “TAGCACTTATGACTAATCACGAACTAATTAGGCTTAAAAGCGGAGTCACCTAGTGCAG”, for which the binding signal is 3980 fluorescence intensity (a.u.).
In the case of “TCACGGCCCCGCCGACCTCACGTCACCTTTTGTTGCGAGTCGGAGTCACCTAGTGCAG” it was 4160 fluorescence intensity (a.u.); in that of “CGCCATGTGTCAACTGGCATGGCCGTGCGCTGGCACACACCGGAGTCACCTAGTGCAG”, 5160 fluorescence intensity (a.u.); in that of “CTTCAAATGTGTGTCAGTATATCCAATATGACACGCCAAACGGAGTCACCTAGTGCAG”, 3870 fluorescence intensity (a.u.).
In the case of “TTGTATACTTTCAAAGGAACTAGTACCATTCGTATTGTTGCGGAGTCACCTAGTGCAG”, the binding signal is 3640 fluorescence intensity (a.u.).
Turning to “TCACTTGACTCGATCGATCGCTCCGATCGACTACACCCCGCGGAGTCACCTAGTGCAG”, the binding signal was 3540 fluorescence intensity (a.u.).
For the sequence “CAGATCCATTCCCAGATCCTGACAAAGCACTAGAACTACACGGAGTCACCTAGTGCAG”, the binding signal is 3620 fluorescence intensity (a.u.).
In the case of “AGTACTCCATTGGAACATGACGCATAATACTACTCTACTTCGGAGTCACCTAGTGCAG” it was 3840 fluorescence intensity (a.u.).
Under “GCGCGAGCCATTATCTTACGTCACGGCCCAAACGCCGAGGCGGAGTCACCTAGTGCAG” stands 7220 fluorescence intensity (a.u.).
Turning to “CCCTCGTCTCCCGCGCCTGCCACGCCGCCGAGTCGCGCCACGGAGTCACCTAGTGCAG”, the binding signal was 5000 fluorescence intensity (a.u.).
Consider “ACACACCACATAAGTGCCACGAAACTGCCTCCGAAACCACCGGAGTCACCTAGTGCAG”, for which the binding signal is 3470 fluorescence intensity (a.u.).
As to “GGTCCCACCTGTCATATGCATATTACGTTTTAGAGTCCGTCGGAGTCACCTAGTGCAG”, the binding signal is 3270 fluorescence intensity (a.u.).
As to “ATCATGCTCTATGTGTAGTTGTATACGTGCGTATATATCTCGGAGTCACCTAGTGCAG”, the binding signal is 3460 fluorescence intensity (a.u.).
In the case of “TTGTGATGATTCATTTATAAAATAAGGAAGTTTTCTCAATCGGAGTCACCTAGTGCAG”, the binding signal was 3360 fluorescence intensity (a.u.).
“GCCGCCCTCTCCCTCCCGCTGTCCACCTCCACCTCACAGGCGGAGTCACCTAGTGCAG”: the binding signal was 4300 fluorescence intensity (a.u.).
Regarding “TGTTCCACGTGGTACCGGTGTGTGTGGCACGGTGGCGCCGCGGAGTCACCTAGTGCAG”, the binding signal was 8490 fluorescence intensity (a.u.).
Turning to “GTTAACAGTAAGTTATTCTTTGAACTCCATATATTTGTTCCGGAGTCACCTAGTGCAG”, the binding signal is 3440 fluorescence intensity (a.u.).
As for “GAGGACACGAGCGCTCCCGGACACGCGTCGCCTCCCCATTCGGAGTCACCTAGTGCAG”, the binding signal is 3880 fluorescence intensity (a.u.).
With “TCGGCGCTGTCGGAGGTGGATCTCGCATAGCTCTCGACGGCGGAGTCACCTAGTGCAG”, the binding signal is 3200 fluorescence intensity (a.u.).
In the case of “AGCCGTATCCACCCAGTTGTACATGTGTCCTAGTTGAGAGCGGAGTCACCTAGTGCAG”, the binding signal is 3380 fluorescence intensity (a.u.).
Under “ATTTGCGCTGATATATTATCTAACGTGACACGATTAATCCCGGAGTCACCTAGTGCAG” stands 6030 fluorescence intensity (a.u.); under “CGTTCTGCACCGTTGGCATGGTCATGTGCTCGGAGAGGAGCGGAGTCACCTAGTGCAG”, 3150 fluorescence intensity (a.u.).
In the case of “GTATACAGTAACAACACGGTATGTAGTATCATTCGCAGTGCGGAGTCACCTAGTGCAG”, the binding signal was 32500 fluorescence intensity (a.u.).
Turning to “TGCTTTCCTCCCTTTATTACTACATCATGCGCCTTCGTGACGGAGTCACCTAGTGCAG”, the binding signal is 3370 fluorescence intensity (a.u.).
For the sequence “AACTCCGGCCTCCCGGCCACCAGTCACACGACTCACGGCACGGAGTCACCTAGTGCAG”, the binding signal was 26900 fluorescence intensity (a.u.).
As for “CATCCATCCTCCATCCTTCATCCGCCGCGACGAAGAGAAACGGAGTCACCTAGTGCAG”, the binding signal is 3880 fluorescence intensity (a.u.).
Take “GCTGACCTACACGTTGCTCCTTCTCATGCTCCTTCTATTTCGGAGTCACCTAGTGCAG”: the binding signal is 3650 fluorescence intensity (a.u.).
As for “CCCCGTCCCGTACACGTCTATCCAAATGGCCACGTTAATCCGGAGTCACCTAGTGCAG”, the binding signal was 4020 fluorescence intensity (a.u.).
For the sequence “GGCTGGCGTGTACGCTTCTGGTGGTATCCACATCGGCCCGCGGAGTCACCTAGTGCAG”, the binding signal was 3320 fluorescence intensity (a.u.).
In the case of “GCCAGAGCCGTCCGTTGTGTTGTGTGTCACCTTTCCGCGCCGGAGTCACCTAGTGCAG” it was 5320 fluorescence intensity (a.u.).
